Experimental data from patent US20180362631A1.
These are yes or no findings as the source states them, for the method shown. Some entries that bind do so weakly or less than the wild type.

Legend:
[1] = target: T1, cynomolgus monkey CXCL7 (cynomolgus monkey) (UniProt G7P5K7); experiment: Fab/antigen complex purified by size exclusion chromatography and crystallized
T1 sequence: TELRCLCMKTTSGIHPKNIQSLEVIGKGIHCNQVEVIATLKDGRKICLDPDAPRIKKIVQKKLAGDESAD

[2] = target: T2, cynomolgus monkey CXCL2 (cynomolgus monkey) (UniProt Q0EAC2); experiment: as above
T2 sequence: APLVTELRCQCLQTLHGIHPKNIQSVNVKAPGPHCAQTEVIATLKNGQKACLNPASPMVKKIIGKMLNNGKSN

binding [1]: binds
binding [2]: binds
B1: Fab of Antibody 1 (Fab, V domains shown)
VH: QVQLVQSGAEVKKPGASVKVSCKASGYEFTSYWIHWVRQAPGQGLEWMGNISPNSGSANYNEKFKSRVTMTRDTSTSTVYMELSSLRSEDTAVYYCAREGPYSYYPSREYYGSDLWGQGTLVTVSS
VL: EIVLTQSPATLSLSPGERATLSCRASQSISNNLHWYQQKPGQAPRLLIYYTSRSVSGIPARFSGSGSGTDFTLTISSLEPEDFAVYYCGQNNEWPEVFGGGTKVEIK
